According to US20090304580A1:
Results are given in words; binding and its absence hold for the method and conditions named. Some binding calls cover weakened binding; strength is not graded here.

How the values were obtained:
[1] = target: T1, linear phage-displayed peptide …; assay: degenerate phage library, panned and screened as before (hPAM4 and mPAM4)
T1 sequence (peptide): WTWNITKEYPQP

[2] = target: T2, linear phage-displayed peptide …; assay: screen of phage-displayed peptides for reactivity with hPAM4 and mPAM4
T2 sequence (peptide): WTWNITKAYPLP

B1: murine PAM4 monoclonal antibody (antibody, V domains shown)
VH: EVQLQESGPELVKPGASVKMSCKASGYTFPSYVLHWVKQKPGQGLEWIGYINPYNDGTQYNEKFKGKATLTSDKSSSTAYMELSRLTSEDSAVYYCARGFGGSYGFAYWGQGTLITVSA
VL: DIVMTQSPAIMSASPGEKVTMTCSASSSVSSSYLYWYQQKPGSSPKLWIYSTSNLASGVPARFSGSGSGTSYSLTISSMEAEDAASYFCHQWNRYPYTFGGGTKLEIK
For B1, which binding [1] is on record?
Its binding is “binds”.

What about the binding [2] of the same binder?
Its binding is “binds”.
